Experimental data as given in US20260055431A1, “METHODS OF DELIVERING COMPONENTS TO MICROORGANOSPHERES” (Xilis, Inc., priority 2022, published 2026).
At least one structure is not confirmed: it was looked up by name or label, or the drawing left a doubt.

System: Patient-Derived MOSs from a single tumor biopsy
Experiment: Multi-drug screen (27 drugs) on Patient-Derived MOSs
Type: cell-based, human
Settings: this particular tumor

For Cc1ccc(Nc2nccc(N(C)c3ccc4c(C)n(C)nc4c3)n2)cc1S(N)(=O)=O [Pazopanib], the “toxicity in panel of 27 drugs” value was “largest toxicity”.
